Consider two compounds from patent US11174289B1, “Artificial intelligence designed antimicrobial peptides” (International Business Machines Corporation, priority 2020, dated 2021).

One data set deals with Balb/c mice. As to conditions: intraperitoneal injection, mortality monitored 14 days, compared with MIC values, numbers only in FIG. 6.
The test system of data set [1] is rat red blood cells (rRBCs). As to conditions: compared with MIC values, numbers only in FIG. 6.

As to `CC[C@H](C)[C@H](NC(=O)[C@H](CCSC)NC(=O)[C@H](CCCCN)NC(=O)[C@H](C)NC(=O)[C@H](CCSC)NC(=O)[C@H](Cc1ccc(O)cc1)NC(=O)[C@H](CCCNC(=N)N)NC(=O)[C@@H](NC(=O)[C@H](CC(C)C)NC(=O)[C@H](CCCNC(=N)N)NC(=O)[C@H](CC(C)C)NC(=O)[C@@H](N)Cc1ccc(O)cc1)[C@@H](C)CC)C(N)=O` [YI12], the LD50 entry with Balb/c mice is “much higher than their MIC values”. Further, the “50% hemolysis (HC50)” value in data set [1] is on record as “much higher than their MIC values”.

For the compound `CC(C)C[C@H](NC(=O)[C@H](Cc1c[nH]c2ccccc12)NC(=O)[C@@H](NC(=O)[C@H](CC(C)C)NC(=O)[C@@H]1CCCN1C(=O)[C@@H](N)Cc1ccccc1)[C@@H](C)O)C(=O)N[C@@H](CCCCN)C(=O)N[C@@H](Cc1c[nH]c2ccccc12)C(=O)N[C@@H](Cc1c[nH]c2ccccc12)C(=O)N[C@@H](CCCCN)C(=O)N[C@@H](Cc1c[nH]c2ccccc12)C(=O)N[C@@H](CCCCN)C(=O)N[C@@H](CCCCN)C(N)=O` [FK13], the LD50 entry in the data set on Balb/c mice was “much higher than their MIC values”. In addition, in data set [1], the “50% hemolysis (HC50)” value is on record as “much higher than their MIC values”.
